Measurements from patent publication US20240317885A1.
Results are given in words; binding and its absence hold for the method and conditions named. Some entries that bind do so weakly or less than the wild type.

Columns and labels:
[1] = target: T1, TIP1 on the surface of human lung cancer cells (A549, H460) (human) (UniProt O14907); assay: flow cytometry on irradiated H460 cells
T1 sequence: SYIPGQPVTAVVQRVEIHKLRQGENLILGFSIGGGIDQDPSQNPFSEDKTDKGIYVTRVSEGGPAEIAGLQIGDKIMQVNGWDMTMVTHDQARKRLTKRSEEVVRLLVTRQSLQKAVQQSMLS

[2] = target: T1, TIP1 on the surface of human lung cancer cells (A549, H460) (human); assay: flow cytometry on irradiated A549 cells
[3] = target: T1, TIP1 on the surface of human lung cancer cells (A549, H460) (human); assay: flow cytometry concentration curve on H460 and A549 cells
[4] = target: T2, Tax interacting protein-1 (TIP1), recombinant / purified protein (Homo sapiens (Human)) (UniProt O14907); assay: indirect ELISA on coated recombinant TIP1 protein (FIG. 9A,B)
T2 sequence: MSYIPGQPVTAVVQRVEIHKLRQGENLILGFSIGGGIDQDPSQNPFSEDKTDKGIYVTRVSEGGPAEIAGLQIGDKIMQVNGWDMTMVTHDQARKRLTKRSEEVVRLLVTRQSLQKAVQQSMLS

[5] = target: T1, TIP1 on the surface of human lung cancer cells (A549, H460) (human); assay: flow cytometry on A549 and H460 human lung cancer cells (FIG. 13, 14, 15)
[6] = target: T2, Tax interacting protein-1 (TIP1), recombinant / purified protein (Homo sapiens (Human)); assay: Western blot of total cellular proteins / purified TIP1 probed with the antibody (FIG. 12)
[7] = target: T1, TIP1 on the surface of human lung cancer cells (A549, H460) (human); assay: near-infrared imaging of labeled antibody in mice with irradiated and sham A549 / H460 tumors
[8] = target: T2, Tax interacting protein-1 (TIP1), recombinant / purified protein (Homo sapiens (Human)); assay: indirect ELISA, three-fold dilutions of expression supernatant on TIP1 protein; KD not calculated

Measured: binding

B1: human IgG1 v111 (antibody, V domains shown)
VH: QMQLVQSGAEVKKPGESLKISCKGSGYSFTSNWIGWVRQMPGKGLEWMGIIYPGDSDTRYSPSFQGQVTISADKSISTAYLQWSSLKASDTAMYYCARQQGHDAFDIWGQGTTVTVSS
VL: SYELTQPPSVSVSPGQTARITCSGDALPKRYAYWYRQKPGQAPVLVIQKDTERPSGIPERFSGSISGTTVTLTISGVQAEDEADYYCQSTDSSASYAVFGGGTKLTVL
not listed: [8]
binds: all other assays above

B2: v111 (affinity-improved variant of scFv-154, before grafting into human IgG1) (scFv, V domains shown)
VH: B1 VH
VL: B1 VL
binds: [8]
